Percent effect of library compounds

Chains of the proteins cited; added tags and fusions are not shown. Residues count along the entry.
UniProt A4I591, 1-473: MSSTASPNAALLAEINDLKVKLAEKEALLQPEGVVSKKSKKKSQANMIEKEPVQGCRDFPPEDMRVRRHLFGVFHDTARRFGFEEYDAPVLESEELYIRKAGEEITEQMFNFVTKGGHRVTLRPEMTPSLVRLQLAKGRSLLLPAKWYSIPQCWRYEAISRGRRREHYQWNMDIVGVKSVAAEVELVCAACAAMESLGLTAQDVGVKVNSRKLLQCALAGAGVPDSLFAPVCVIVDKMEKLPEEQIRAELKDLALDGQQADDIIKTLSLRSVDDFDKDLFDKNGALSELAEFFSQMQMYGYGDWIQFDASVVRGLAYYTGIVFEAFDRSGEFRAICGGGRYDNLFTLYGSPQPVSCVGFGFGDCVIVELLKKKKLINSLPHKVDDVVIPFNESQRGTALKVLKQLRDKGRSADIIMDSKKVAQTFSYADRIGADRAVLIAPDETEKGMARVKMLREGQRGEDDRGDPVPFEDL
UniProt I6X8D2, whole entry: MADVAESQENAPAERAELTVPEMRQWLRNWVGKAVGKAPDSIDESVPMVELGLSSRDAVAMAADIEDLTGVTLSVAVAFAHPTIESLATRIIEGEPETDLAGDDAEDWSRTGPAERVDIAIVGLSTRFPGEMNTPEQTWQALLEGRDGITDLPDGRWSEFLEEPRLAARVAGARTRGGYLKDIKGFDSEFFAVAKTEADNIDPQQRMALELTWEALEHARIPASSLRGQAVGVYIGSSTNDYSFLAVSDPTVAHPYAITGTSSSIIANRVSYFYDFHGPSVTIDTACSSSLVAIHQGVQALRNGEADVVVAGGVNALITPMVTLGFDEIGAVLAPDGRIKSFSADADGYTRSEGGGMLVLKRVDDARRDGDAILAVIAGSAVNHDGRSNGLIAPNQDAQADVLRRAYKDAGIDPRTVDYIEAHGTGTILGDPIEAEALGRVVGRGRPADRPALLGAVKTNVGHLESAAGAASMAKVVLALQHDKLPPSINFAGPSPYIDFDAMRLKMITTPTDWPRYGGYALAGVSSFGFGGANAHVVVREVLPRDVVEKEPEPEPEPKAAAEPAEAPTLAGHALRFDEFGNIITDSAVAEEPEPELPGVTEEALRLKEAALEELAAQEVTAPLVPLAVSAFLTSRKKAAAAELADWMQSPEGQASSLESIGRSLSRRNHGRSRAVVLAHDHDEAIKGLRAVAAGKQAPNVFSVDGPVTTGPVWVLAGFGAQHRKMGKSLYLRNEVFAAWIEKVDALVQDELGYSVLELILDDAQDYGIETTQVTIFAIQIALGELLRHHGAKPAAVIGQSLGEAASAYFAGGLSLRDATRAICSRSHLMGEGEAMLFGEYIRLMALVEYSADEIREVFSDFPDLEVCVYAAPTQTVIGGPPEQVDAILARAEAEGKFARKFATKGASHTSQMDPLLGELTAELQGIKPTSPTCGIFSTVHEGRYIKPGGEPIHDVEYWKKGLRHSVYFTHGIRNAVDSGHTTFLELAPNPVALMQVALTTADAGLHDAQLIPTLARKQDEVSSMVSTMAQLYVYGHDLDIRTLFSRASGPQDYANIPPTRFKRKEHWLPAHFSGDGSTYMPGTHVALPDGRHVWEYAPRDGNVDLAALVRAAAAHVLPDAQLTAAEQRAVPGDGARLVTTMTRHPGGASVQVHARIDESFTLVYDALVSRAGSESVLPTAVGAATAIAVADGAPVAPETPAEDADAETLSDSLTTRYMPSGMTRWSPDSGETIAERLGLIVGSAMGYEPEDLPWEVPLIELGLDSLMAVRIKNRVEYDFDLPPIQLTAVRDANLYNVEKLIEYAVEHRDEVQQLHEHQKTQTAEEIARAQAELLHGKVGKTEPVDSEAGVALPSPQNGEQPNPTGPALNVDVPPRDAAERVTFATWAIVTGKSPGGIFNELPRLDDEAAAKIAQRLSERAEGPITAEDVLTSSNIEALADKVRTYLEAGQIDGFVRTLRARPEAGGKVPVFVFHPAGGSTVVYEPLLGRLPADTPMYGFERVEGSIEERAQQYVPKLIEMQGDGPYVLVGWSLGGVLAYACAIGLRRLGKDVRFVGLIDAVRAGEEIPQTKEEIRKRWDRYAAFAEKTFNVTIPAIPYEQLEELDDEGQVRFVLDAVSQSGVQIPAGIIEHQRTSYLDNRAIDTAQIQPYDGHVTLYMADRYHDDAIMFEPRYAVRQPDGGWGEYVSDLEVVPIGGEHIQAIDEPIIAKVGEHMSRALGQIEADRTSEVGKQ

Source: ChEMBL document CHEMBL3988442, “University of Dundee, Small-Polar-MMV Screening Library” (2021).

Results are given as percent effect. How 0% and 100% were set is not recorded. Most values in the screen are low, and negative values occur. Compounds were drawn at random from those tested, without regard to their results. Two or more numbers in one place are separate tests of the same structure; such repeats can differ widely. A dash means the value is not listed here; it may have been measured.

A: 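Enzyme assay of histidyl-tRNA synthetase; the read-out is not stated. Target: Histidine-tRNA ligase, Leishmania infantum (UniProt A4I591). Tested at 30 µM. Higher reads as stronger inhibition (inferred: compounds with an IC50 in retests scored well above the rest). The assay is labelled LdHisRS but filed under L. infantum. About 69,000 compounds were tested under these conditions; 0.6% (about 410) showed 50% or more at least once.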
B: 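Polyketide synthase Pks13, Mycobacterium tuberculosis (UniProt I6X8D2). Enzyme assay of the thioesterase domain of polyketide synthase 13; the read-out is not stated. Tested at 30 µM. The record gives no direction; the compounds picked for IC50 retests had high values, so higher reads as stronger inhibition. Of about 67,000 compounds tested this way, about 300 (0.46%) reached 50% or more in at least one test.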
C: 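Cell assay of Leishmania donovani living inside macrophages; the read-out is not stated. Compounds at 30 µM. Higher reads as stronger inhibition (inferred: compounds with an IC50 in retests scored well above the rest). About 69,000 compounds were tested under these conditions; 1.5% (about 1,000) showed 50% or more at least once.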

compound	A	B	C
COc1ncc(NCc2ccc(Cl)c(Cl)c2)cc1C(N)=O	1.036	-108.2	14.16
CNc1cc(-c2cccc(CN)c2)c2cc[nH]c2n1	68.67	-1.073	52.08
COc1ccccc1OCCC(=O)N1CCCC1Cn1cccn1 (centres unmarked)	6.25	-10.04	-3.562
CCn1c(=O)n(CC)c2cc(S(N)(=O)=O)ccc21	23.08	-8.805	-4.363
Cc1ccc(N2CCCC(NCc3cccs3)C2)nn1 (centres unmarked)	7.895	-8.046	11.64
CCc1noc(C(C)N2CCN(S(=O)(=O)N3CCCC3)CC2)n1 (centres unmarked)	12.07	-13.87	14.74
Cc1noc(C)c1C(=O)NCC(C)N1CCc2ccccc21 (centres unmarked)	15.38	-14.43	24.49
COC[C@@H]1CCC[C@@]12CN(C(=O)N1CCCC1)CCO2	13.86	-10.11	32.02
Cn1ccnc1CNC1CCCN(Cc2noc(C3CC3)n2)C1 (centres unmarked)	15.38	-16.39	6.282
CC(C)(O)CN1CCN(C(=O)c2ccn(-c3cccc(F)c3)n2)CC1	3.03	7.131	18.88
Nc1nnc(CCNC(=O)c2cccc(C3CCCNC3)c2)s1 (centres unmarked)	8.333	-38.05	5.236
COc1c(C2CCCN2CC(=O)NCc2ccccn2)c(C)nn1C (centres unmarked)	3.509	-3.189	23.75
CN(Cc1cccs1)S(=O)(=O)c1ccc(C(F)(F)F)nc1	2.439	15.79	27.78
COCCNC(=O)N1CCN(C(C)C(=O)NC2CCCC2)CC1 (centres unmarked)	17.11	-24.66	20.55
Cc1nc(C(C)(C)NC(=O)Nc2ccc(C#N)cc2)no1	23.29	-20.79	30.04
CN(C)C(=O)CNC(CC(F)(F)F)c1ccc(F)cc1 (centres unmarked)	-1.587	-7.496	-0.8685
O=C1CCc2ccccc2N1CCCn1cnnn1	9.917	-	7.727
c1nc(CN2CCCC(Cc3ccc(NC4CCCC4)nn3)C2)c[nH]1 (centres unmarked)	7.042	4.361	-
CC(C)n1cc(CN2CCCN(C(=O)CC3CCCCC3)CC2)cn1	12.5	-10.53	30.37
Cc1cn(CC(=O)NC2CCC3(CC2)OCCO3)c2ccccc12	9.091	-30.76	24.59
CCc1nc(CN2CCCN(C(=O)c3c(C)noc3C)CC2)cs1	14.89	-6.503	30.92
CN(CCC#N)C(=O)CN1CCCC1c1ccsc1 (centres unmarked)	0	-4.772	-8.973
CCNC(c1ccc(Br)cc1)c1cccnc1 (centres unmarked)	3.509	-5.476	8.304
O=C(O)C(F)(F)F.OCCOCc1n[nH]c2c1CN(Cc1ccccn1)C2	-	-	40.11
COCCN1CC(=O)N(C(C)C)C(C)(C)C1	0	-16.92	-4.366
CCOc1ncccc1NC(=O)Nc1c(C)nn(C(C)C)c1C	22.52	-14.27	4.649
CN(C)C(=O)N1CCOCC2(CCN(c3ccccn3)C2)C1 (centres unmarked)	5.66	0.2161	-
O=C(c1sccc1Cl)N1CCC(Cn2cc(CO)nn2)CC1	11.96	-4.867	-13.17
O=C(Nc1nc(-c2ccccc2)ns1)N1CC[C@H](O)C1	10.26	-6.356	-38.97 & 8.941
COCCN(Cc1ccc(F)cc1Cl)C(=O)c1ccccn1	17.81	-6.572	-3.093
N#Cc1ccc(NC2CCN(c3ncccn3)CC2)cc1C(F)(F)F	11.43	26.83	-6.258
c1ccc(CO[C@@H]2CN(Cc3nccs3)[C@@H]3COC[C@@H]32)nc1	13.64	26.62	-
Cc1ccc(NCc2cncc3c2CCN(C(=O)C2CC=CC2)C3)nn1	28.3	-3.856	-
CCc1cc(CNCc2ccccc2N(C)C2CCN(C)CC2)on1	12.7	-	35.04
[H][C@@]12CN(Cc3ccc4c(c3)OCO4)C[C@]1([H])OCC(=O)N2	-	-	17.89
Cc1cc(CN(C)C(=O)C2CCCN(C(=O)c3cccs3)C2)no1 (centres unmarked)	16.04	-8.609	33.18
CC(C)C(=O)NC1CCN(CCO)CC1	9.677	-10.01	-4.275
CC(C)n1cnnc1CN1C(=O)CCc2ccccc21	4.301	-2.318	28.31
CC(C)N1CC(c2ncc(-c3ccc4c(c3)OCCO4)[nH]2)CC1=O (centres unmarked)	-2.857	-22.7	26.45
O=C(Cc1ccccc1)NCc1ncc(-c2ccccc2C(=O)O)cn1	13.04	-1.869	15.32
CN(C)c1ccc(CNC(=O)c2ccc(Cl)cc2F)cc1	28.57	-24.16	8.323
Cc1ccn(-c2ccccc2NCc2cscn2)n1	26.03	6.743	-6.616
CN(C)c1ccc(C(=O)N(Cc2ccncc2)CC2CCCO2)nn1 (centres unmarked)	13.73	-12.51	33.7
Cc1ccccc1OCCN1CCn2c(C)nnc2C1	-2.609	-5.692	-10.06
O=C(c1cnco1)N1C[C@@H](O)[C@H](Oc2cccc(F)c2)C1	16	-	-4.749
CCn1nc(CNC(=O)C2CC(=O)N(C3CCCC3)C2)c2ccccc21 (centres unmarked)	5.769	-17.09	-1.522
COCC(NC(=O)c1ccoc1C)c1cccc(C(F)(F)F)c1 (centres unmarked)	15.29	-11.79	20.81
Br.Cc1cccc(N(CC(=O)c2ccccc2)C2=NCCCCC2)c1	-	-	7.153 & 18.6
CC(=O)NCC(=O)N1CCCC1c1ccc(CN2CCOCC2)cn1 (centres unmarked)	5.755	2.591	-12.83
CNc1nc(C2CCCN2C(C)=O)nc2c1CN(C1CCCC1)CC2 (centres unmarked)	10.14	1.518	10.75 & 8.665
O=C(O)C(F)(F)F.O=C(c1ccccn1)N1CCOC2(COCCN(Cc3cc[nH]n3)C2)C1 (centres unmarked)	-	-	30.4
CCc1noc(C)c1C(=O)Nc1cnn(CC(=O)NC2CCCC2)c1	22.58	-3.849	27.5
O=C(Nc1ccccc1OCc1ccccn1)NC1CCOCC1	29.58	-43.38	12.42
c1cnn(CC2CN(Cc3nnc(C4CC4)o3)CCO2)c1 (centres unmarked)	2.679	-11.03	17.58
CCN(Cc1nc(COC)no1)Cc1cccnc1NC(=O)C(C)(C)C	8.511	-16.07	14.42

Once more, the final 6:

compound	A	B	C
CNc1nc(C2CCCN2C(C)=O)nc2c1CN(C1CCCC1)CC2 (centres unmarked)	10.14	1.518	10.75 & 8.665
O=C(O)C(F)(F)F.O=C(c1ccccn1)N1CCOC2(COCCN(Cc3cc[nH]n3)C2)C1 (centres unmarked)	-	-	30.4
CCc1noc(C)c1C(=O)Nc1cnn(CC(=O)NC2CCCC2)c1	22.58	-3.849	27.5
O=C(Nc1ccccc1OCc1ccccn1)NC1CCOCC1	29.58	-43.38	12.42
c1cnn(CC2CN(Cc3nnc(C4CC4)o3)CCO2)c1 (centres unmarked)	2.679	-11.03	17.58
CCN(Cc1nc(COC)no1)Cc1cccnc1NC(=O)C(C)(C)C	8.511	-16.07	14.42